Data published in paper PMC4338441, “Non-catalytic motor domains enable processive movement and functional diversification of the kinesin-14 Kar3” (eLife, 2015).
No constants are given. Whether binding was seen depends on the method and setting. For part of these data: In cells and extracts the contact can be indirect. Some entries that bind do so weakly or less than the wild type. Where a sequence is shown, tags or fusion partners need not be part of it.

The chains behind the UniProt entries cited, without tags or fusion partners. Where a name states a change or a piece, a line headed by the entry shows the natural chain unless it says otherwise.
UniProt P40460: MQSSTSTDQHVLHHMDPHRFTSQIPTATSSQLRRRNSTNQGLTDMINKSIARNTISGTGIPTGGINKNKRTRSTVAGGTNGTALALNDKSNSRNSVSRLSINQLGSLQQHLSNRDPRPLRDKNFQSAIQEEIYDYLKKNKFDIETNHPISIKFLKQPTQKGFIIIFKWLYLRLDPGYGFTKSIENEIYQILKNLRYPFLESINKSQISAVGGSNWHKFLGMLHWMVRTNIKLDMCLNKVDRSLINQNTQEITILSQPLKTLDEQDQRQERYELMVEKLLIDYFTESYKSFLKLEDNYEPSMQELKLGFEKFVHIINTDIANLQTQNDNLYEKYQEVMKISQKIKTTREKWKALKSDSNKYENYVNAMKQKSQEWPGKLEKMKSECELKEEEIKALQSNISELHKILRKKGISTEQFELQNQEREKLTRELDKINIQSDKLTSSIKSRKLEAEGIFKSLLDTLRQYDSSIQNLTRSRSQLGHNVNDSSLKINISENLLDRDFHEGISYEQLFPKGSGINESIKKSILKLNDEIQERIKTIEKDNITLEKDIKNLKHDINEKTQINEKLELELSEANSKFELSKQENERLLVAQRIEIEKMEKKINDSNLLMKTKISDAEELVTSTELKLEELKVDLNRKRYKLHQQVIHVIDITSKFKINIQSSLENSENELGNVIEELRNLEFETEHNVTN

What was measured:
[1] = target: T1, Vik1–Kar3 heterodimer (full-length Vik1-1xFLAG with Halo-Kar3) (S. cerevisiae (S288c)) (UniProt P17119+Q12045); assay: in vitro recruitment to microtubules (TIRF microscopy); bulk recruitment assay in the absence of nucleotide; TMR-labeled Kar3 motors and fluorescently labeled recombinant Ndc80 complex on surface-immobilised taxol-stabilized microtubules; both purified
T1 sequence (chain, HaloTag TMR ligand covalently bound to the HaloTag (imaging experiments)) 1: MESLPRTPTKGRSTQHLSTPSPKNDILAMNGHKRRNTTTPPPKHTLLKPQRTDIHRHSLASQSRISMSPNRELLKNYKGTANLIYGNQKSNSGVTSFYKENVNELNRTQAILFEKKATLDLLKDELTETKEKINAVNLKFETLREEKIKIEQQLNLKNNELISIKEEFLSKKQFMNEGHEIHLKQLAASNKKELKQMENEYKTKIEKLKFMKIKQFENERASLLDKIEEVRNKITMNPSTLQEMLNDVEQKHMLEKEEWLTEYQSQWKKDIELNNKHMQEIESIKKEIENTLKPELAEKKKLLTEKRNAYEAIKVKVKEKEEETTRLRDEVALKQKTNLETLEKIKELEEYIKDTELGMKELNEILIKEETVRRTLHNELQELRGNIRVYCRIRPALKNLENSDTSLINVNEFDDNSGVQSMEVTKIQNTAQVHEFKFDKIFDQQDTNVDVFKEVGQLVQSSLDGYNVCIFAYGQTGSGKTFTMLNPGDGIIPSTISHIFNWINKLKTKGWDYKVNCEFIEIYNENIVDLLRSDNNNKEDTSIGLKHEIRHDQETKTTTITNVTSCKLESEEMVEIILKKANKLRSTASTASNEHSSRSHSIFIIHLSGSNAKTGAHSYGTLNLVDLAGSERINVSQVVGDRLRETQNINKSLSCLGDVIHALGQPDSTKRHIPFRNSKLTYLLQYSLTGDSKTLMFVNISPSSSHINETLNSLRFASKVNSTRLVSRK
T1 sequence (chain, HaloTag TMR ligand covalently bound to the HaloTag (imaging experiments)) 2: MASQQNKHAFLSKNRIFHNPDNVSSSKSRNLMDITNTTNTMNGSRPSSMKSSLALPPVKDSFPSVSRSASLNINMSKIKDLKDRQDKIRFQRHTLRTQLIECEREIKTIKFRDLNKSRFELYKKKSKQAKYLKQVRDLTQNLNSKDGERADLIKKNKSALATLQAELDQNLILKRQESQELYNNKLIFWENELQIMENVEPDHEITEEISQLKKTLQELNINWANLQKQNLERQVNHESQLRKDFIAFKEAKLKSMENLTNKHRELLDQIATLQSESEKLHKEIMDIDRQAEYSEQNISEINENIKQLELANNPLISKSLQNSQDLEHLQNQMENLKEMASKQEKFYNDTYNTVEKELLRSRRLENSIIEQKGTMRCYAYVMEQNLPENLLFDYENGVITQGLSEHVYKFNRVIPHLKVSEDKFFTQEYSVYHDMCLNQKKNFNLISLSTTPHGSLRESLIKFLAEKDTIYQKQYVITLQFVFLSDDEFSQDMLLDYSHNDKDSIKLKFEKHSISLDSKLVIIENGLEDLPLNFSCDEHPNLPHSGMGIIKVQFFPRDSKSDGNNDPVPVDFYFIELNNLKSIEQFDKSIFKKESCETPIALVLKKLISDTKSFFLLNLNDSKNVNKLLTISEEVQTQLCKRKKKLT

[2] = target: T2, Cik1-1xFLAG (full-length Cik1, aa 1–594) (S. cerevisiae (S288c)) (UniProt Q01649); assay: co-IP; two subunits co-overexpressed in S. cerevisiae; FLAG-tagged subunit bound to M2 anti-FLAG affinity agarose (lysis buffer 300 mM NaCl, washes 150 mM NaCl), HaloTag labelled on the resin, eluted with 3xFLAG peptide; Coomassie SDS-PAGE and fluorescence of the Halo-Kar3 subunit
T2 sequence: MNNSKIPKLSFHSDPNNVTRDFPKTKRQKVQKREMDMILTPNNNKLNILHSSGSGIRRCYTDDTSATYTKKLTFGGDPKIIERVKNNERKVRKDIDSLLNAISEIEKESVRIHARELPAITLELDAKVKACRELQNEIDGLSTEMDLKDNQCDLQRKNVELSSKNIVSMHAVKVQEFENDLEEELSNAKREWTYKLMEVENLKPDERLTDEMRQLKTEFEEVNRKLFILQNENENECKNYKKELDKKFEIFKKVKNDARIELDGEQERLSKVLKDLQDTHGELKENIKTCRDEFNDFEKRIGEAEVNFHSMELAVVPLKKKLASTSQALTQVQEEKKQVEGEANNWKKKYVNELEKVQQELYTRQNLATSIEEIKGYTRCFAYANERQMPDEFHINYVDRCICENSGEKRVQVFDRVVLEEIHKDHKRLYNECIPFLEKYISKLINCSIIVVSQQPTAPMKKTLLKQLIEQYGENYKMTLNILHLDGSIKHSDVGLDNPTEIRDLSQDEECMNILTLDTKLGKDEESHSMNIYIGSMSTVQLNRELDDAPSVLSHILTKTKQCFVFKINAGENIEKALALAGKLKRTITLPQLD

[3] = target: T3, GST-Bim1^FL (budding yeast) (UniProt P40013); assay: pull-down; 0.1–1 μM GST-tagged bait immobilised on glutathione sepharose; binding partner at a constant 0.5–1 μM; 25 mM Hepes pH 7.2, 250 mM NaCl, 1 mM MgCl2, 1 mM EGTA, 0.5 mM DTT, 0.05% NP-40; 1 hr at 4°C; SDS-PAGE, Coomassie; both purified
T3 sequence: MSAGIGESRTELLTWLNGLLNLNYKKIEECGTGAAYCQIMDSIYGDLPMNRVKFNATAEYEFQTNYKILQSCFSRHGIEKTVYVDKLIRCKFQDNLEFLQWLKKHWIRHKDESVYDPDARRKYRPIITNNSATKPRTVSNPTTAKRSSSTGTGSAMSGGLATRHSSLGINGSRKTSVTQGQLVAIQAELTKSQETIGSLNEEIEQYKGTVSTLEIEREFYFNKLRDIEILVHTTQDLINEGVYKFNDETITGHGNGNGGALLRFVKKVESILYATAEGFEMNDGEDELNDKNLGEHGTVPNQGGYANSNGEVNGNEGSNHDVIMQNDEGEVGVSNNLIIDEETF

Molecule: recombinant full-length Ndc80 complex (Ndc80p-6xHis/Nuf2p-EGFP and Spc24p/6xHis/Spc25p) (from UniProt P40460 1-691; P33895 1-451; Q04477 1-213; P40014 1-221)
- binding [1]: no binding

B1: Halo-Kar3 with the amino-terminal tail domain truncated (up to aa 174) (domain or fragment, UniProt P17119 175-729)
chain: MNEGHEIHLKQLAASNKKELKQMENEYKTKIEKLKFMKIKQFENERASLLDKIEEVRNKITMNPSTLQEMLNDVEQKHMLEKEEWLTEYQSQWKKDIELNNKHMQEIESIKKEIENTLKPELAEKKKLLTEKRNAYEAIKVKVKEKEEETTRLRDEVALKQKTNLETLEKIKELEEYIKDTELGMKELNEILIKEETVRRTLHNELQELRGNIRVYCRIRPALKNLENSDTSLINVNEFDDNSGVQSMEVTKIQNTAQVHEFKFDKIFDQQDTNVDVFKEVGQLVQSSLDGYNVCIFAYGQTGSGKTFTMLNPGDGIIPSTISHIFNWINKLKTKGWDYKVNCEFIEIYNENIVDLLRSDNNNKEDTSIGLKHEIRHDQETKTTTITNVTSCKLESEEMVEIILKKANKLRSTASTASNEHSSRSHSIFIIHLSGSNAKTGAHSYGTLNLVDLAGSERINVSQVVGDRLRETQNINKSLSCLGDVIHALGQPDSTKRHIPFRNSKLTYLLQYSLTGDSKTLMFVNISPSSSHINETLNSLRFASKVNSTRLVSRK
modifications: HaloTag TMR ligand covalently bound to the HaloTag
- binding [2]: binds

B2: Vik1–Kar3 heterodimer (full-length Vik1-1xFLAG with Halo-Kar3) (complex, UniProt P17119 1-729; Q12045 1-647)
chain 1: T1 sequence (chain, HaloTag TMR ligand covalently bound to the HaloTag (imaging experiments)) 1
chain 2: T1 sequence (chain, HaloTag TMR ligand covalently bound to the HaloTag (imaging experiments)) 2
modifications: HaloTag TMR ligand covalently bound to the HaloTag (imaging experiments)
- binding [3]: no binding (tested: binding partner 0.5–1 μM; bait 0.1–1 μM)
